Source: paper PMC11855355, “In-Situ Purification of Non-Ribosomal Peptide Synthetases Assembly Line for Structural and Biochemical Studies” (International Journal of Molecular Sciences, 2025)
No constants are given. Whether binding was seen depends on the method and setting. For some assays here: In cells and extracts the contact can be indirect. Some entries that bind do so weakly or less than the wild type.

Sequences of proteins named here, by UniProt entry; tags and fusion partners are left off.
UniProt Q88F79: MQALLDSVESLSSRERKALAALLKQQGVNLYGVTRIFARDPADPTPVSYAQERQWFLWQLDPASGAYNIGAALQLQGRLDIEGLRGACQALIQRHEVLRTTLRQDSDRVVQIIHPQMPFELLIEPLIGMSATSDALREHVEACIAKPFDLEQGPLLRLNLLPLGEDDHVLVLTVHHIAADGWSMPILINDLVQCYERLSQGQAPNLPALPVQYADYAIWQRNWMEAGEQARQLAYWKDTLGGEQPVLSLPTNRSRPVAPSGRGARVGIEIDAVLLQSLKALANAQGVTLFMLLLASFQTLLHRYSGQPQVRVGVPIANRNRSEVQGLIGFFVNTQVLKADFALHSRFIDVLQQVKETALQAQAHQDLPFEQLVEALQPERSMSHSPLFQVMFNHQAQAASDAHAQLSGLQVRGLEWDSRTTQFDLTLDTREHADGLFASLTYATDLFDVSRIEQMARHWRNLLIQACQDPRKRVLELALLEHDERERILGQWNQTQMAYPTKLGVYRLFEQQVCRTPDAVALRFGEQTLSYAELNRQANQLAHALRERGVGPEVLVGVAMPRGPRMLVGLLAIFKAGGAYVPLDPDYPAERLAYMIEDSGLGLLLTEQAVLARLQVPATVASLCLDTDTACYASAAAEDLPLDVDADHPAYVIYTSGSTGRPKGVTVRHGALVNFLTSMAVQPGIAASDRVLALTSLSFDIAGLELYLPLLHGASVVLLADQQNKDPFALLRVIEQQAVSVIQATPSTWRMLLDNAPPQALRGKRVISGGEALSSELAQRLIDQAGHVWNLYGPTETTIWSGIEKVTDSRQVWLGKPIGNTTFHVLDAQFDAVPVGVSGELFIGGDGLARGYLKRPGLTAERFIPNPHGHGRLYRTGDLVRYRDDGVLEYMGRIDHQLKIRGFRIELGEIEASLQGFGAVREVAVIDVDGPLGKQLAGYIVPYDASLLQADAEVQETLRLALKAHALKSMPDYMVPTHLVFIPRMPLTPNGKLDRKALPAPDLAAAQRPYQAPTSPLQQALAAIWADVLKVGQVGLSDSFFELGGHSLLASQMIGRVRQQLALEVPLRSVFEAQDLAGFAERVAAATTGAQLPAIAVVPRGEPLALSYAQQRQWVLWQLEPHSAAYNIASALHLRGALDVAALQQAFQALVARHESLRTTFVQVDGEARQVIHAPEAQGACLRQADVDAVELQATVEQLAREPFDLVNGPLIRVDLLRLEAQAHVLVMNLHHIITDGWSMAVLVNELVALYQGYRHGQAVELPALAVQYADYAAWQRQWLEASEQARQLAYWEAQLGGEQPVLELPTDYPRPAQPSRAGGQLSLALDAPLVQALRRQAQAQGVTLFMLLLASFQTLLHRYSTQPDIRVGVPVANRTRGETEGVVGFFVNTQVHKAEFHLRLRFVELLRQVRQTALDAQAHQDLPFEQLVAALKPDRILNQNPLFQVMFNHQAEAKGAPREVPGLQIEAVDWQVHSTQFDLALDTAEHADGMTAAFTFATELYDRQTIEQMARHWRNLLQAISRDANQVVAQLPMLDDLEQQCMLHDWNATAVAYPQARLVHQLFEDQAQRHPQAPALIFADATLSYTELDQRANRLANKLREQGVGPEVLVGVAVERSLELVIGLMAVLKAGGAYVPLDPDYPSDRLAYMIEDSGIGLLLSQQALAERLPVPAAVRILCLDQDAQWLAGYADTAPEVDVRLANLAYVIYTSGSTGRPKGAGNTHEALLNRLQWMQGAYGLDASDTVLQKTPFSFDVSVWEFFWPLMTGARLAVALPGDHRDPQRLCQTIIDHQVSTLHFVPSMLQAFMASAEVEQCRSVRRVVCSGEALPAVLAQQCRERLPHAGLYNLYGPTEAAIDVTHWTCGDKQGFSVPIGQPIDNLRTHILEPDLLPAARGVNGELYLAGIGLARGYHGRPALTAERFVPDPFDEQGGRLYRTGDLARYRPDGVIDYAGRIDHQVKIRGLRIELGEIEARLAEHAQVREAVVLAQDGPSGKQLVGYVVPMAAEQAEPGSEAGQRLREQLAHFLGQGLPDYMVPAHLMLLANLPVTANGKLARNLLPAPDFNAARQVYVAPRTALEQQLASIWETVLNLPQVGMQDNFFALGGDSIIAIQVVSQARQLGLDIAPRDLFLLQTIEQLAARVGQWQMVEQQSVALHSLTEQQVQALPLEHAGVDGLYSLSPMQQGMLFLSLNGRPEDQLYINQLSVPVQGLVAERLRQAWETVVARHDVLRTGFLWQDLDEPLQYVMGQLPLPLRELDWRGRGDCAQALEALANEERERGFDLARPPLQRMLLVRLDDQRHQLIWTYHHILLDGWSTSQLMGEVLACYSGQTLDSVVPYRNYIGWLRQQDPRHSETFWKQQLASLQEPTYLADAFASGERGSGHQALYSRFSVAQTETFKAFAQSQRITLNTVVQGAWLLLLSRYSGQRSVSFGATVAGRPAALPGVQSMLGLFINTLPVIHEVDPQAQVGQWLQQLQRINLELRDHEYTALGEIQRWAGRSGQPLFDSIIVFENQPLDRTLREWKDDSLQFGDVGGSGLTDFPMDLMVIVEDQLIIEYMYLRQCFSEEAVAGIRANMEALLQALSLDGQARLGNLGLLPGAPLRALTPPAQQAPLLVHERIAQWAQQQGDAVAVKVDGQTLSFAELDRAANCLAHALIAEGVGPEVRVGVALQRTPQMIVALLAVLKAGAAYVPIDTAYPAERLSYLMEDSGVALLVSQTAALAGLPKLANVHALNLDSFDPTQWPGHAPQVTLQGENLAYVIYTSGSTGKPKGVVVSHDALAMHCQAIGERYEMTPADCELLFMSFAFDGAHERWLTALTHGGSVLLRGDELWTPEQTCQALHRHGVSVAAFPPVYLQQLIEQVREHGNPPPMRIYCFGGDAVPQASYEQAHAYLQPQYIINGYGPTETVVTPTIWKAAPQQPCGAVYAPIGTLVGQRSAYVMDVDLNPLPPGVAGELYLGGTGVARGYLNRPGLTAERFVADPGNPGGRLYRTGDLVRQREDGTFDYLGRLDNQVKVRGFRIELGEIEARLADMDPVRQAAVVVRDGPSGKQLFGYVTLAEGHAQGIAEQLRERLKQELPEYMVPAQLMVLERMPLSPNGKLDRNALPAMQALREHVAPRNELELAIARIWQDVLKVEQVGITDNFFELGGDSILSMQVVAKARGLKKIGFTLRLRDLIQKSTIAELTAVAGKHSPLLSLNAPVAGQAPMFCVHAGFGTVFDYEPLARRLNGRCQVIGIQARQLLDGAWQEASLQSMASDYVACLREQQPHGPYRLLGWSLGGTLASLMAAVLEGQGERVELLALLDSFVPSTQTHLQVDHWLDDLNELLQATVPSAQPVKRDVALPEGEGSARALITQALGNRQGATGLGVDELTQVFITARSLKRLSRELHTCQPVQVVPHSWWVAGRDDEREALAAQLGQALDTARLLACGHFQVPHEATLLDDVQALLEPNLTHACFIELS
UniProt Q88F78: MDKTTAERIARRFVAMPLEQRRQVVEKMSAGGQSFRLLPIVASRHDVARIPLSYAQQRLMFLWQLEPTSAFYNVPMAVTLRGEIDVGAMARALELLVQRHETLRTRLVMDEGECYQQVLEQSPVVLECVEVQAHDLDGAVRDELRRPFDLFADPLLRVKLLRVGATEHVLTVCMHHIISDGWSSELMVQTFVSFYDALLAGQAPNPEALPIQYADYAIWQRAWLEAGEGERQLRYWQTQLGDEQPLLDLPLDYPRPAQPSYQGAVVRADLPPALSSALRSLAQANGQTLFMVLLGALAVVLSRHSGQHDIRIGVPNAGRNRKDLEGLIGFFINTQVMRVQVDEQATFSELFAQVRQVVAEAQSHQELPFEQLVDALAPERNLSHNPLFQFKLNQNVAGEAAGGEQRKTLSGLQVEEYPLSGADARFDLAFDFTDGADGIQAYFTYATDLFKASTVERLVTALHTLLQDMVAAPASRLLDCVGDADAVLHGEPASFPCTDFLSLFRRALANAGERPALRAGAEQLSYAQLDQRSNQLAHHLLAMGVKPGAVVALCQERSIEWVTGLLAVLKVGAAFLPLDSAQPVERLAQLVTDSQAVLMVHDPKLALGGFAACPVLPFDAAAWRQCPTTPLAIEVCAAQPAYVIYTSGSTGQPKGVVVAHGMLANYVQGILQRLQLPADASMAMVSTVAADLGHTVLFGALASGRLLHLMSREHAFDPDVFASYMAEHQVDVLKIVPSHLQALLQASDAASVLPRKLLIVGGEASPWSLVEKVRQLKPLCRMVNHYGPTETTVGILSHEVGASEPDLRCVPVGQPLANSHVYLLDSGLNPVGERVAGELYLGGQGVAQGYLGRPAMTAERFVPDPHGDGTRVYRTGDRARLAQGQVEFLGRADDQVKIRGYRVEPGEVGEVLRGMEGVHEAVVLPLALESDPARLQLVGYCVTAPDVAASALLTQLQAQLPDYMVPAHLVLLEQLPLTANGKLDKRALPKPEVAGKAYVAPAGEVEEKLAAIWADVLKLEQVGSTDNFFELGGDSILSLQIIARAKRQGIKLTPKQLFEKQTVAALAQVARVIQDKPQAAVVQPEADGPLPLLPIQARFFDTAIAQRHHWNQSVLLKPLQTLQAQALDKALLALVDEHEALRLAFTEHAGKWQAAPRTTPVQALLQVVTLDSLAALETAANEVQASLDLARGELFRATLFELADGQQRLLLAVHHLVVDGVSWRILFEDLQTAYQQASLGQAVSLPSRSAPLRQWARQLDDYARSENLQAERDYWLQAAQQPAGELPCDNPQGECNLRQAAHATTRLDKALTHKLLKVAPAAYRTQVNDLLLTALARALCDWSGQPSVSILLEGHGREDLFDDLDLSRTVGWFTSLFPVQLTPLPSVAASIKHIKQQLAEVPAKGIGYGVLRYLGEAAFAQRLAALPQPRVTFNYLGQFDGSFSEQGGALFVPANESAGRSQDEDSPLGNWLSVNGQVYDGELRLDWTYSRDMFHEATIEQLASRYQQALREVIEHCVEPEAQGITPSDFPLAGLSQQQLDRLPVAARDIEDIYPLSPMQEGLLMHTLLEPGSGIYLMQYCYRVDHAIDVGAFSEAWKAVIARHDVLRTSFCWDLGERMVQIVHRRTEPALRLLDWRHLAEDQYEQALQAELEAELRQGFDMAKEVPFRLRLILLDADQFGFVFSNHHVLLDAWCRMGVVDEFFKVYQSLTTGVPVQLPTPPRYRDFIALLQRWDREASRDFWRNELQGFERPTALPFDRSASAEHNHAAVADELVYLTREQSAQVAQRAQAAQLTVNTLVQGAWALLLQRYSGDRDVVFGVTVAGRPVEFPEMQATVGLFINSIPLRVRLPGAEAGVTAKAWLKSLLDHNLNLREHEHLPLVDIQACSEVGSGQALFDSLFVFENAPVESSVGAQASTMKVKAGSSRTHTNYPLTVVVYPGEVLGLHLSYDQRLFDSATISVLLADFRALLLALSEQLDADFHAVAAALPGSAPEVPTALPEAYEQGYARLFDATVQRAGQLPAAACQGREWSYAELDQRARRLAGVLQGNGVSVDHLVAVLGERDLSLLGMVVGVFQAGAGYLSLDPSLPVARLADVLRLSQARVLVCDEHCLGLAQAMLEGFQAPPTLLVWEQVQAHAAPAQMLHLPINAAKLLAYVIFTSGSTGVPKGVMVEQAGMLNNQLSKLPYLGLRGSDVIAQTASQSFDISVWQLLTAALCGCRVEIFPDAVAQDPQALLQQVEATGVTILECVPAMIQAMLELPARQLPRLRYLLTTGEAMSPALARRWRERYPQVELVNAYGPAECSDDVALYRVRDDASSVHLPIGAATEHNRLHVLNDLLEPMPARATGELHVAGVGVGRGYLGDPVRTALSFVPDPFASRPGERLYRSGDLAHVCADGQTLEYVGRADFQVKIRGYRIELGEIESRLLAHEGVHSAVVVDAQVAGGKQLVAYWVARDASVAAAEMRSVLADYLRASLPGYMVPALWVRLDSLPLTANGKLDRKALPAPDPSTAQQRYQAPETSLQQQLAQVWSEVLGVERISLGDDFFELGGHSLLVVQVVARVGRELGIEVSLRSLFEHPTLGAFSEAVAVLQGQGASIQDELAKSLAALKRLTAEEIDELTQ

Assays:
[1] = target: PvdD with a C-terminal 6 × His + Flag (cHF) tag (Pseudomonas putida KT2440) (UniProt Q88F79); assay: native gel or EMSA; native PAGE of the purified tagged PVD NRPS subunits; both purified
[2] = target: PvdD with a C-terminal 6 × His + Flag (cHF) tag (Pseudomonas putida KT2440) (UniProt Q88F79); assay: negative-stain electron microscopy; subunits purified by one-step Flag affinity and Superose 6 Increase SEC (50 mM Hepes, 10 mM NaCl, pH 7.6), diluted to 0.025 mg/mL, uranium acetate stain, 120 keV; both purified
[3] = target: MbtH-like protein (MLP) PP3808 with a C-terminal 6 × His + Strep tag (Pseudomonas putida KT2440) (UniProt Q88GB6); assay: pull-down; tandem affinity: IMAC (Ni-TED) eluate of the PP3808cHS strain lysate applied to Streptactin resin, eluted with 2.5 mM dethiobiotin; SDS-PAGE
[4] = target: MbtH-like protein (MLP) PP3808 with a C-terminal 6 × His + Flag tag (Pseudomonas putida KT2440) (UniProt Q88GB6); assay: pull-down; one-step IMAC: clarified lysate of the tag knock-in strain incubated with Ni-TED resin 1 h at 4 °C in Buffer A (50 mM Hepes, 150 mM NaCl, 5% glycerol, pH 7.6), washed, eluted with 200 mM imidazole; SDS-PAGE
[5] = target: PvdI with a C-terminal 6 × His + Flag (cHF) tag (Pseudomonas putida KT2440) (UniProt Q88F77); assay: as above
[6] = target: PvdJ with a C-terminal 6 × His + Flag (cHF) tag (Pseudomonas putida KT2440) (UniProt Q88F78); assay: as above
[7] = target: PvdL with a C-terminal 6 × His + Flag (cHF) tag (Pseudomonas putida KT2440) (UniProt Q88F56); assay: as above
[8] = target: MbtH-like protein (MLP) PP3808 with a C-terminal 6 × His + Flag tag (Pseudomonas putida KT2440) (UniProt Q88GB6); assay: pull-down; one-step Flag affinity: clarified lysate of the tag knock-in strain incubated with Flag-M2 resin 4 h at 4 °C in Buffer A (50 mM Hepes, 150 mM NaCl, 5% glycerol, pH 7.6), washed, eluted with 0.1 mg/mL 3 × Flag peptide; SDS-PAGE
[9] = target: PvdI with a C-terminal 6 × His + Flag (cHF) tag (Pseudomonas putida KT2440) (UniProt Q88F77); assay: as above
[10] = target: PvdJ with a C-terminal 6 × His + Flag (cHF) tag (Pseudomonas putida KT2440) (UniProt Q88F78); assay: as above
[11] = target: PvdL with a C-terminal 6 × His + Flag (cHF) tag (Pseudomonas putida KT2440) (UniProt Q88F56); assay: as above
[12] = target: PvdI with a C-terminal 6 × His + Flag (cHF) tag (Pseudomonas putida KT2440) (UniProt Q88F77); assay: native gel or EMSA; native PAGE of the purified tagged PVD NRPS subunits; both purified
[13] = target: PvdI with a C-terminal 6 × His + Flag (cHF) tag (Pseudomonas putida KT2440) (UniProt Q88F77); assay: negative-stain electron microscopy; subunits purified by one-step Flag affinity and Superose 6 Increase SEC (50 mM Hepes, 10 mM NaCl, pH 7.6), diluted to 0.025 mg/mL, uranium acetate stain, 120 keV; both purified
[14] = target: PvdD with a C-terminal 6 × His + Flag (cHF) tag (Pseudomonas putida KT2440) (UniProt Q88F79); assay: pull-down; one-step IMAC: clarified lysate of the tag knock-in strain incubated with Ni-TED resin 1 h at 4 °C in Buffer A (50 mM Hepes, 150 mM NaCl, 5% glycerol, pH 7.6), washed, eluted with 200 mM imidazole; SDS-PAGE
[15] = target: PvdD with a C-terminal 6 × His + Flag (cHF) tag (Pseudomonas putida KT2440) (UniProt Q88F79); assay: pull-down; one-step Flag affinity: clarified lysate of the tag knock-in strain incubated with Flag-M2 resin 4 h at 4 °C in Buffer A (50 mM Hepes, 150 mM NaCl, 5% glycerol, pH 7.6), washed, eluted with 0.1 mg/mL 3 × Flag peptide; SDS-PAGE
[16] = target: PvdJ with a C-terminal 6 × His + Flag (cHF) tag (Pseudomonas putida KT2440) (UniProt Q88F78); assay: native gel or EMSA; native PAGE of the purified tagged PVD NRPS subunits; both purified
[17] = target: PvdJ with a C-terminal 6 × His + Flag (cHF) tag (Pseudomonas putida KT2440) (UniProt Q88F78); assay: negative-stain electron microscopy; subunits purified by one-step Flag affinity and Superose 6 Increase SEC (50 mM Hepes, 10 mM NaCl, pH 7.6), diluted to 0.025 mg/mL, uranium acetate stain, 120 keV; both purified
[18] = target: PvdL with a C-terminal 6 × His + Flag (cHF) tag (Pseudomonas putida KT2440) (UniProt Q88F56); assay: native gel or EMSA; native PAGE of the purified tagged PVD NRPS subunits; both purified
[19] = target: PvdL with a C-terminal 6 × His + Flag (cHF) tag (Pseudomonas putida KT2440) (UniProt Q88F56); assay: negative-stain electron microscopy; subunits purified by one-step Flag affinity and Superose 6 Increase SEC (50 mM Hepes, 10 mM NaCl, pH 7.6), diluted to 0.025 mg/mL, uranium acetate stain, 120 keV; both purified

Row | Substance | binding [3] | binding [4] | binding [5] | binding [6] | binding [7] | binding [8] | binding [9] | binding [10] | binding [11] | binding [14] | binding [15] | further results
1 | PvdD with a C-terminal 6 × His + Flag (cHF) tag (from UniProt Q88F79 1-3470) (enzyme) |  |  |  |  |  |  |  |  |  |  |  | binding [1]: no binding; binding [2]: no binding
2 | PvdD, pyoverdine (PVD) NRPS subunit, untagged (from UniProt Q88F79 1-3470) (enzyme) | binds | binds | no binding | no binding | no binding | binds | no binding | no binding | no binding |  |  | 
3 | PvdI with a C-terminal 6 × His + Flag (cHF) tag (from UniProt Q88F77 1-2174) (enzyme) |  |  |  |  |  |  |  |  |  |  |  | binding [12]: no binding; binding [13]: no binding
4 | PvdI, pyoverdine (PVD) NRPS subunit, untagged (from UniProt Q88F77 1-2174) (enzyme) | binds | binds |  | no binding | no binding | binds |  | no binding | no binding | no binding | no binding | 
5 | PvdJ with a C-terminal 6 × His + Flag (cHF) tag (from UniProt Q88F78 1-2628) (enzyme) |  |  |  |  |  |  |  |  |  |  |  | binding [16]: no binding; binding [17]: no binding
6 | PvdJ, pyoverdine (PVD) NRPS subunit, untagged (from UniProt Q88F78 1-2628) (enzyme) | binds | binds | no binding |  | no binding | binds | no binding |  | no binding | no binding | no binding | 
7 | PvdL with a C-terminal 6 × His + Flag (cHF) tag (from UniProt Q88F56 1-4317) (enzyme) |  |  |  |  |  |  |  |  |  |  |  | binding [18]: no binding; binding [19]: no binding
8 | PvdL, pyoverdine (PVD) NRPS subunit, untagged (from UniProt Q88F56 1-4317) (enzyme) | binds | binds | no binding | no binding |  | binds | no binding | no binding |  | no binding | no binding | 
